PubChem BioAssay AID504808, Drosophila RNAi Screening Center | 2011
Assay: 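Genes whose loss lifts activity of an E2F-responsive reporter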 (primary screen). Cells: Drosophila S2 cells. Knock-down reagent: long dsRNA against Drosophila genes. Read-out: 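Firefly luciferase driven by E2F sites, normalised to Renilla luciferase on the same minimal promoter, measured by plate reader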. Scale: E2F firefly: higher = more E2F reporter activity; Renilla normaliser: higher = more normaliser reporter signal. Call rule: 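a knock-down counted as active when the firefly/Renilla E2F signal rose above 50%, a threshold chosen arbitrarily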.
In all, the deposit lists about 21,000 reagents; this is an unselected part of those that have a named target and a result. Of all reagents, 18 (0.084%) got an active call. 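Raw counts without plate normalisation, one of two replicates; the ratio scores behind the calls were not deposited.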 Not given: the amount of reagent, the time to read-out.

Cyp6a2 gave E2F firefly, rep 1 = 1.03e5; Renilla normaliser, rep 1 = 3595; inactive.
After knock-down of saturn, the screen gave E2F firefly, rep 1 = 1.29e5; Renilla normaliser, rep 1 = 2960; inactive.
Knock-down of CG33257 gave: E2F firefly, rep 1 = 1.70e5; Renilla normaliser, rep 1 = 8125; inactive.
For CG7631, the entry reads E2F firefly, rep 1 = 92551; Renilla normaliser, rep 1 = 3826; inactive.
Against CG13126, the values are E2F firefly, rep 1 = 1.61e5; Renilla normaliser, rep 1 = 5255; inactive.
After knock-down of CanA1, the record shows E2F firefly, rep 1 = 1.31e5; Renilla normaliser, rep 1 = 7002; inactive.
Knock-down of garz resulted in: E2F firefly, rep 1 = 88700; Renilla normaliser, rep 1 = 4180; inactive.
TwdlX gave E2F firefly, rep 1 = 83196; Renilla normaliser, rep 1 = 2402; inactive.
Depletion of AIMP1 resulted in: E2F firefly, rep 1 = 1.50e5; Renilla normaliser, rep 1 = 5241; inactive.
Silencing of Ccm3 gave: E2F firefly, rep 1 = 1.13e5; Renilla normaliser, rep 1 = 5234; inactive.
With knock-down of CG34229, the screen gave E2F firefly, rep 1 = 96126; Renilla normaliser, rep 1 = 4261; inactive.
Against Naglu, the entry reads E2F firefly, rep 1 = 86461; Renilla normaliser, rep 1 = 3732; inactive.

Part of the list above, set out differently.
{"target":"CanA1","E2F firefly, rep 1":1.31e5,"Renilla normaliser, rep 1":7002,"activity call":"inactive"}
{"target":"garz","E2F firefly, rep 1":88700,"Renilla normaliser, rep 1":4180,"activity call":"inactive"}
{"target":"TwdlX","E2F firefly, rep 1":83196,"Renilla normaliser, rep 1":2402,"activity call":"inactive"}
{"target":"AIMP1","E2F firefly, rep 1":1.50e5,"Renilla normaliser, rep 1":5241,"activity call":"inactive"}

Additional records follow.
After knock-down of Arpc3B the results were E2F firefly, rep 1 = 1.28e5; Renilla normaliser, rep 1 = 7578; inactive.
Jhbp12 showed E2F firefly, rep 1 = 1.08e5; Renilla normaliser, rep 1 = 5629; inactive.
With knock-down of cathD, the record shows E2F firefly, rep 1 = 1.46e5; Renilla normaliser, rep 1 = 4940; inactive.
Depletion of nan came out at: E2F firefly, rep 1 = 1.55e5; Renilla normaliser, rep 1 = 7085; inactive.
Against Ilp1, the entry reads E2F firefly, rep 1 = 1.27e5; Renilla normaliser, rep 1 = 6088; inactive.
Cpr97Eb gave E2F firefly, rep 1 = 1.17e5; Renilla normaliser, rep 1 = 6027; inactive.
For CG12194, the values are E2F firefly, rep 1 = 1.47e5; Renilla normaliser, rep 1 = 5733; inactive.
For Pburs the deposit lists E2F firefly, rep 1 = 99754; Renilla normaliser, rep 1 = 4180; inactive.
For CG7607 the deposit lists E2F firefly, rep 1 = 1.09e5; Renilla normaliser, rep 1 = 6502; inactive.
CG8997 gave E2F firefly, rep 1 = 92304; Renilla normaliser, rep 1 = 4196; inactive.
CG8517 gave E2F firefly, rep 1 = 1.60e5; Renilla normaliser, rep 1 = 5389; inactive.
For Lcp2, the entry reads E2F firefly, rep 1 = 1.43e5; Renilla normaliser, rep 1 = 5866; inactive.
Silencing of Cpr67B resulted in: E2F firefly, rep 1 = 82609; Renilla normaliser, rep 1 = 3050; inactive.
TwdlT scored E2F firefly, rep 1 = 1.34e5; Renilla normaliser, rep 1 = 6385; inactive.
Ada2a gave E2F firefly, rep 1 = 1.25e5; Renilla normaliser, rep 1 = 6383; inactive.
Knock-down of cal1 resulted in: E2F firefly, rep 1 = 61937; Renilla normaliser, rep 1 = 3272; inactive.
